# Reference: patent US8772446B2, “Bifunctional chelating agents” (Nordion (Canada) Inc., priority 2010, dated 2014)
# How the values were obtained:
# [1] = Transchelation of Ga from NOTA by dedpa; conditions: for Complex found after adding equivalent dedpa to pre-formed ^67Ga-NOTA: room temperature
# [2] = Competition for chelation of ^67Ga between H2dedpa and NOTA; conditions: 10^−4 M each, pH 4.5, 10 minutes, room temperature
SMILES,Extraction of gallium from the NOTA complex (in words) ([1]; challenge experiment),Share of ^67Ga coordinated in direct competition of equal concentrations of NOTA and H2dedpa ([2]; listed as (dedpa)^2−),Complex found after adding equivalent dedpa to pre-formed ^67Ga-NOTA ([1]; 10 minutes),"Ga-NOTA converted to Ga-dedpa ([1]; pre-formed Ga-NOTA, equivalent dedpa, 10 minutes)",Share of ^67Ga coordinated in direct competition of equal concentrations of NOTA and H2dedpa [2]
O=C(O)c1cccc(CNCCNCc2cccc(C(=O)O)n2)n1 [Compound H2dedpa],capable of extracting gallium,over 96%,,,
"O=C([O-])CN1CCN(CC(=O)[O-])CCN(CC(=O)[O-])CC1.[Ga+3] [Ga-NOTA, reference compound]",,,0.2%,About 10%,0.2%
"O=C(O)CN1CCN(CC(=O)O)CCN(CC(=O)O)CC1 [NOTA, 1,4,7-triazacyclononane-1,4,7-triacetic acid, reference compound]",,,,,less than 1%
"O=C(O)c1cccc(CNCCNCc2cccc(C(=O)O)n2)n1 [^67Ga(dedpa)^+, metal not drawn]",,,Over 98%,,Over 98%
